Measurements as given in the supplement of paper PMC12819154, “High-throughput peptide-centric local stability assay extends protein–ligand identification to membrane proteins, tissues and bacteria” (Nature Structural & Molecular Biology, 2025).
Some of the results follow. Most entries show no effect beyond the scatter of the controls.

The chains behind the UniProt entries cited, without tags or fusion partners. Where a name states a change or a piece, a line headed by the entry shows the natural chain unless it says otherwise.
UniProt P11679: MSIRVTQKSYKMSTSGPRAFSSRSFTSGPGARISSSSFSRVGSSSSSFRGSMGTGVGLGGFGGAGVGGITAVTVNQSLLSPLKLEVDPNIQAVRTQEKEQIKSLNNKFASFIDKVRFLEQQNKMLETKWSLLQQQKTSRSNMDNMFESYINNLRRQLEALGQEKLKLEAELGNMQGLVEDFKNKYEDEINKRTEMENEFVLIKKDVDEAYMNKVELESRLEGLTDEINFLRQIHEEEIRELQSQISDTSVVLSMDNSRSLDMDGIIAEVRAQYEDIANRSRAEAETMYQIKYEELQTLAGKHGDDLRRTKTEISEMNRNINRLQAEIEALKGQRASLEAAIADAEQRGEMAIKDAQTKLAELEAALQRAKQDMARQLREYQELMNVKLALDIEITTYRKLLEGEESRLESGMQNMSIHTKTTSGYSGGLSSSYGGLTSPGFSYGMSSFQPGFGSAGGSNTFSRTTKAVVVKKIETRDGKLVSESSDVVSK
UniProt P05208: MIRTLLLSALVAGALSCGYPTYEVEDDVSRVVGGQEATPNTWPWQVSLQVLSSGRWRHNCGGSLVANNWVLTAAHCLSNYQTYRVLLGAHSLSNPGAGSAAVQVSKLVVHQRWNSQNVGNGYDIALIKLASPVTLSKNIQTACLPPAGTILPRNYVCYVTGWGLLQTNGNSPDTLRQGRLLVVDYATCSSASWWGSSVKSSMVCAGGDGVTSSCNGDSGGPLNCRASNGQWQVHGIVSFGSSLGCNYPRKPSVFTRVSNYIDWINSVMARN
UniProt P23591: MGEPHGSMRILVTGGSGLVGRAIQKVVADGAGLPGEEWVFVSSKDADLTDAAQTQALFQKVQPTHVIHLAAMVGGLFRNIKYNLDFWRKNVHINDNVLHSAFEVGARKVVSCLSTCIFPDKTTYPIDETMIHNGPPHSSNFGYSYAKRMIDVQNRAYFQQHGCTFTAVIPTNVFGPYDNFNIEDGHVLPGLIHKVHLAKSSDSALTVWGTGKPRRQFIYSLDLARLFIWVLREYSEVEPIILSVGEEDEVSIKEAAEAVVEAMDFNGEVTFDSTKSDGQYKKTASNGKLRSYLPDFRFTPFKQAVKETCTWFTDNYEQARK
UniProt P26040, whole entry: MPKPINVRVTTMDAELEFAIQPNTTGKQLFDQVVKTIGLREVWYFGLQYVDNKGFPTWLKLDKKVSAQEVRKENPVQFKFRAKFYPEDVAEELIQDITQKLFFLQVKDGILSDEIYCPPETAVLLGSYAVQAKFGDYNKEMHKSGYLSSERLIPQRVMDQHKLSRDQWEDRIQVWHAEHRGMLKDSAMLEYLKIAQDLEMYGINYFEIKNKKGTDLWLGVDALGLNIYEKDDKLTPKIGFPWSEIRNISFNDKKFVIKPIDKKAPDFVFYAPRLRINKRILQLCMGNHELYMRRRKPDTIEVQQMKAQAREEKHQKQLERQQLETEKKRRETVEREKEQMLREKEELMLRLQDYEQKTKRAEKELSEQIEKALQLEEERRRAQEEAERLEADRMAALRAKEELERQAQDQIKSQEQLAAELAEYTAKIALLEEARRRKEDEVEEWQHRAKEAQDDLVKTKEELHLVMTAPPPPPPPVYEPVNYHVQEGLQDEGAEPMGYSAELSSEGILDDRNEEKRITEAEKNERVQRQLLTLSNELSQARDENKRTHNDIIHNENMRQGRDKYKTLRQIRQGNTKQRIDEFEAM
UniProt P20491: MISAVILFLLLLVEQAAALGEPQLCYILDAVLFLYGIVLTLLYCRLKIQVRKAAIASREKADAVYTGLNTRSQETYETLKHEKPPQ
UniProt P11680, whole entry: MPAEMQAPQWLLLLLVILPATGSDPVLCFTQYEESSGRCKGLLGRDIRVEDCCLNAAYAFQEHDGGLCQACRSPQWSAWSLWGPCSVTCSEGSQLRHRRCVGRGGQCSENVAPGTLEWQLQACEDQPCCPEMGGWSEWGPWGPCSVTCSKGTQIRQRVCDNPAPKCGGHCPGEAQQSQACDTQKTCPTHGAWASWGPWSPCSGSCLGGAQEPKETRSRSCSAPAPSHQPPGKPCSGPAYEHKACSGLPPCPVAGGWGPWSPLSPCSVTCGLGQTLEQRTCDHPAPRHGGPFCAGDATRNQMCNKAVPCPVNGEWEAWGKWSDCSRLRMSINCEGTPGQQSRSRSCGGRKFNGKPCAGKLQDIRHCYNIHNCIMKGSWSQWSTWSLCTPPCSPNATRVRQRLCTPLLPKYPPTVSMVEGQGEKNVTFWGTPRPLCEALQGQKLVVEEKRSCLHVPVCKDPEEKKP
UniProt P12791: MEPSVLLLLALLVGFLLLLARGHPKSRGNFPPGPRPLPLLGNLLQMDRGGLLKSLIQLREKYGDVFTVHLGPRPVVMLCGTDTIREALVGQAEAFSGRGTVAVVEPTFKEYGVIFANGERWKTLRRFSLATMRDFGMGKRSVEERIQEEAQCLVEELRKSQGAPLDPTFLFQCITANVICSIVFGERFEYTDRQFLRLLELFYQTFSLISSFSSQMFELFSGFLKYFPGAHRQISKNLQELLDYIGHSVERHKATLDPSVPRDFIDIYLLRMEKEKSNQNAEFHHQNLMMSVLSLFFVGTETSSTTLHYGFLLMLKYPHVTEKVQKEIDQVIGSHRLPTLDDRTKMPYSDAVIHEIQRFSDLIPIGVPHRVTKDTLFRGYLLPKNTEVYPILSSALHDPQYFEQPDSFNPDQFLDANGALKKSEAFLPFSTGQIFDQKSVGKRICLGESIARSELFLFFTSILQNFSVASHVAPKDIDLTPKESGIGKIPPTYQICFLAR
UniProt P12246: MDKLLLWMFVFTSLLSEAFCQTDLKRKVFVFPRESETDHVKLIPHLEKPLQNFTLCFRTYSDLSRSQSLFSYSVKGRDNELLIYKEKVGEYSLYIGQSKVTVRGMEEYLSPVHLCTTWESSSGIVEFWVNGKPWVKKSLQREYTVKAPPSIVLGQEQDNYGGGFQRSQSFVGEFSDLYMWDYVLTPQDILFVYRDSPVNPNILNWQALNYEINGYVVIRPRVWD
UniProt P13516: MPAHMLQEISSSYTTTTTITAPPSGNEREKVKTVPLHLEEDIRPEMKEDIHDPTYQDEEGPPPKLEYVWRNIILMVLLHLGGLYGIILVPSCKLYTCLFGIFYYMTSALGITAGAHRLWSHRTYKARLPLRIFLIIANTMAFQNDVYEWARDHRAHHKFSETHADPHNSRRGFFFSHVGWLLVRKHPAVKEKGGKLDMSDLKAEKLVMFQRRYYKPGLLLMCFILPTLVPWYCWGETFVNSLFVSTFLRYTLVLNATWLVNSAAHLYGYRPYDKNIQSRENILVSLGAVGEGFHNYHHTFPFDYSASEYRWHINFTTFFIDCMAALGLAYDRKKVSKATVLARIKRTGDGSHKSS
UniProt P06801: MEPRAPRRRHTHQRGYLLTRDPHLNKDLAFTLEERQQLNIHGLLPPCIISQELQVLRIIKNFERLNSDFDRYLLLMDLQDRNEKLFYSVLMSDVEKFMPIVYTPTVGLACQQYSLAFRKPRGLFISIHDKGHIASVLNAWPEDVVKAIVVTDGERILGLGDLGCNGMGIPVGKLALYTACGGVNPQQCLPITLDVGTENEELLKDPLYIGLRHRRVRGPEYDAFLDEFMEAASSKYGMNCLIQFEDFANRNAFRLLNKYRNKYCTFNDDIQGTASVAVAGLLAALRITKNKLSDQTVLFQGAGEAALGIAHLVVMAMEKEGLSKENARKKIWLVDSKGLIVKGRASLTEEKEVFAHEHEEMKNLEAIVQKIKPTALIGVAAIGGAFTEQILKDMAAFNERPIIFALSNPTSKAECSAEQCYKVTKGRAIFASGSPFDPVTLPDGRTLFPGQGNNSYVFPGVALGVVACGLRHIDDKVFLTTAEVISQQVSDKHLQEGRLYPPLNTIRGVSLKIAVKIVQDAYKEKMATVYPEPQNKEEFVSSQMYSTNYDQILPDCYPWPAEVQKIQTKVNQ
UniProt P16056: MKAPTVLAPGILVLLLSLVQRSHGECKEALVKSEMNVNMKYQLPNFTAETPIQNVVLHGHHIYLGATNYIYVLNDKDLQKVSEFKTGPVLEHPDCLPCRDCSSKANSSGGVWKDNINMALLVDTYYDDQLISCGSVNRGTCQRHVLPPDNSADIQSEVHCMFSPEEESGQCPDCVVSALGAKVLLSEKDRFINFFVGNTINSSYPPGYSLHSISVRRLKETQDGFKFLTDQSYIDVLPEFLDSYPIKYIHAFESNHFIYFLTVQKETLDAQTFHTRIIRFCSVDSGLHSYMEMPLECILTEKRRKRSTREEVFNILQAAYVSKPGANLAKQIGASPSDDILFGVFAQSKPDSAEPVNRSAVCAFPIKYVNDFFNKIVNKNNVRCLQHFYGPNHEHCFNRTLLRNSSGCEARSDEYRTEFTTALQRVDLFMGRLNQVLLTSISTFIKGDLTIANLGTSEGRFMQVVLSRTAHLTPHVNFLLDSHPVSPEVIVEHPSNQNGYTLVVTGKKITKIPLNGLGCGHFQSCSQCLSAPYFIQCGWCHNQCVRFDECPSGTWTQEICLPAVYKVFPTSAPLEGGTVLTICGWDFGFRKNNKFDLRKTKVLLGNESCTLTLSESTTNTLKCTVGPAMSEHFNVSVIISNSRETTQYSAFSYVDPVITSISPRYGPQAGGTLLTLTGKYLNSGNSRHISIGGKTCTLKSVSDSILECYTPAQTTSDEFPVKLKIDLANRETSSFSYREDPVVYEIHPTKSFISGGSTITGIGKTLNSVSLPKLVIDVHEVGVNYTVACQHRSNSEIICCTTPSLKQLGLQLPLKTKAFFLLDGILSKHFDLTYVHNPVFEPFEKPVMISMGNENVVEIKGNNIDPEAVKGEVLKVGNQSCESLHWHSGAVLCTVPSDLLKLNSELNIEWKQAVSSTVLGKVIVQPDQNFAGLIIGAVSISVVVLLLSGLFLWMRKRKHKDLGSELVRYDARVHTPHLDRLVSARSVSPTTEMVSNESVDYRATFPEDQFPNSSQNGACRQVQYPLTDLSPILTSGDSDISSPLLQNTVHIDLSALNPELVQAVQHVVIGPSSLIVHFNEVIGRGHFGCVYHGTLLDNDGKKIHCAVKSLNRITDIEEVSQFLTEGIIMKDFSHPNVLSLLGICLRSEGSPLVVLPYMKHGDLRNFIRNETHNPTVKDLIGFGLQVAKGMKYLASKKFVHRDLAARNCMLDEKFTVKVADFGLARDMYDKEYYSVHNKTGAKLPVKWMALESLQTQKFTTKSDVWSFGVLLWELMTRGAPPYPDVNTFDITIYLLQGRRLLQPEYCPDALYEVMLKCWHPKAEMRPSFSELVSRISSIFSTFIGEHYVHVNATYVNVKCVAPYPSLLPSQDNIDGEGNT
UniProt P06800: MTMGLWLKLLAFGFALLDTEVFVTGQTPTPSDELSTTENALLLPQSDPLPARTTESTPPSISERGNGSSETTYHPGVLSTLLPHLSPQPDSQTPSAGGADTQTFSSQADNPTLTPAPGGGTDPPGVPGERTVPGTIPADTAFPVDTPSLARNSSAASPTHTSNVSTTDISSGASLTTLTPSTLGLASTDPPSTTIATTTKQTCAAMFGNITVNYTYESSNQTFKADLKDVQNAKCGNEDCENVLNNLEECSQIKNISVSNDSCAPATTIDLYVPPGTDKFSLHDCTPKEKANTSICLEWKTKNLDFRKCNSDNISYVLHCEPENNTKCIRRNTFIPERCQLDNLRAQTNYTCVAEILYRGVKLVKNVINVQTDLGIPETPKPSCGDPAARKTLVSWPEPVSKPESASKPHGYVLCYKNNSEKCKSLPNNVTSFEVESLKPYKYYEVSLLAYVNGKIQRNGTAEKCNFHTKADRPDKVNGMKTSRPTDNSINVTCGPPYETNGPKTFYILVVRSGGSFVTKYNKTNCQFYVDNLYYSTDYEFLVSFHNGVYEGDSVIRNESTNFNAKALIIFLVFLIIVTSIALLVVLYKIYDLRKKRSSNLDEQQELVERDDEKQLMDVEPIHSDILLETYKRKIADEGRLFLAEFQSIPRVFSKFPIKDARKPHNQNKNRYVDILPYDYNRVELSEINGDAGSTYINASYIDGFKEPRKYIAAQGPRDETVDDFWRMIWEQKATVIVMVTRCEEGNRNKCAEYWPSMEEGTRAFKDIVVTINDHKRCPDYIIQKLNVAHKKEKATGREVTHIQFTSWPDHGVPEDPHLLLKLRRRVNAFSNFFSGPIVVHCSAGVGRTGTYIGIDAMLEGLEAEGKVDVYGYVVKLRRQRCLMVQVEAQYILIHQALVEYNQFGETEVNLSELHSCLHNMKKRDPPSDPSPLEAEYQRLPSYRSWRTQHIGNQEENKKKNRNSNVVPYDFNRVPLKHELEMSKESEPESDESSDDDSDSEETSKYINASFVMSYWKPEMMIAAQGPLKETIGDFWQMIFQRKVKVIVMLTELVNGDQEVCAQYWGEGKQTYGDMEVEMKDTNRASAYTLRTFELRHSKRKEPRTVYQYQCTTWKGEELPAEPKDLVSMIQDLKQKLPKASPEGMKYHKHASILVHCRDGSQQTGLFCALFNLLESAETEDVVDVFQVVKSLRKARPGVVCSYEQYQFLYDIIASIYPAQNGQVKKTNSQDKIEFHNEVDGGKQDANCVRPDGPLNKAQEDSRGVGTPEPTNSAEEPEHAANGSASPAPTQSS

The targets below were run with CN[C@@H]1C[C@H]2O[C@@](C)([C@@H]1OC)n1c3ccccc3c3c4c(c5c6ccccc6n2c5c31)C(=O)NC4 [staurosporine] (assay: log2 fold change of pooled soluble protein (PISA), ligand vs vehicle (log2 ratio); higher = more thermally stabilized). Conditions: ligand concentration: 20 uM; assay format: PISA pool 52.9/55.5/58.6 C.
UniProt P11438 was tested, and the “log2 fold change of pooled soluble protein” value (from here on “log2 fold change”) was 0.0507. For UniProt P09411, the “log2 fold change” value was -0.0975. With UniProt P14115 the “log2 fold change” value was -0.178. UniProt P27659 was tested, and the “log2 fold change” value was -0.112. With UniProt P11679 the “log2 fold change” value was -0.278. UniProt P18581 was tested, and the “log2 fold change” value was 0.0638. With UniProt P05208 the “log2 fold change” value was -0.282. UniProt P06797 was tested, and the “log2 fold change” value was 0.351. In the case of UniProt P23591, the “log2 fold change” value is reported as 0.104. UniProt P12787 was tested, and the “log2 fold change” value was -0.125. With UniProt P26040 the “log2 fold change” value was 0.00785. UniProt P12367 was tested, and the “log2 fold change” value was -0.0191. With UniProt P18654 the “log2 fold change” value was 0.706. For UniProt P13020, the “log2 fold change” value was -0.121. In the case of UniProt P21278, the “log2 fold change” value is reported as -0.0421. With UniProt P20491 the “log2 fold change” value was -0.0119. For UniProt P11680, the “log2 fold change” value was -0.116. UniProt P16294 was tested, and the “log2 fold change” value was -0.0111. UniProt P02798 was tested, and the “log2 fold change” value was -0.494. In the case of UniProt P12791, the “log2 fold change” value is reported as 0.0653. For UniProt P24270, the “log2 fold change” value was -0.199. UniProt P03911 was tested, and the “log2 fold change” value was 0.053. For UniProt P22361, the “log2 fold change” value was -0.259. For UniProt P26443, the “log2 fold change” value was -0.0879. For UniProt P12246, the “log2 fold change” value was -0.0277. With UniProt P26369 the “log2 fold change” value was -0.0481. For UniProt P13516, the “log2 fold change” value was -0.0123. For UniProt P06801, the “log2 fold change” value was 0.0181. In the case of UniProt P25322, the “log2 fold change” value is reported as -0.0992. UniProt P11688 was tested, and the “log2 fold change” value was -0.00233. In the case of UniProt P14152, the “log2 fold change” value is reported as -0.0159. For UniProt P27641, the “log2 fold change” value was 0.182. For UniProt P16056, the “log2 fold change” value was -0.0411. In the case of UniProt P06728, the “log2 fold change” value is reported as -0.0634. For UniProt P03893, the “log2 fold change” value was -0.144. UniProt P06800 was tested, and the “log2 fold change” value was -0.0447. In the case of UniProt P14211, the “log2 fold change” value is reported as 0.0758.
